From paper PMC11814372
These are yes or no findings as the source states them, for the method shown. In cells and extracts the contact can be indirect. Some results given as binding are weak or reduced against the parent protein; the word gives no strength. Sequences can lack the tags named with a protein.

Protein sequences, listed by entry. Tags and fused reporters are not part of them.
UniProt Q9NZM1: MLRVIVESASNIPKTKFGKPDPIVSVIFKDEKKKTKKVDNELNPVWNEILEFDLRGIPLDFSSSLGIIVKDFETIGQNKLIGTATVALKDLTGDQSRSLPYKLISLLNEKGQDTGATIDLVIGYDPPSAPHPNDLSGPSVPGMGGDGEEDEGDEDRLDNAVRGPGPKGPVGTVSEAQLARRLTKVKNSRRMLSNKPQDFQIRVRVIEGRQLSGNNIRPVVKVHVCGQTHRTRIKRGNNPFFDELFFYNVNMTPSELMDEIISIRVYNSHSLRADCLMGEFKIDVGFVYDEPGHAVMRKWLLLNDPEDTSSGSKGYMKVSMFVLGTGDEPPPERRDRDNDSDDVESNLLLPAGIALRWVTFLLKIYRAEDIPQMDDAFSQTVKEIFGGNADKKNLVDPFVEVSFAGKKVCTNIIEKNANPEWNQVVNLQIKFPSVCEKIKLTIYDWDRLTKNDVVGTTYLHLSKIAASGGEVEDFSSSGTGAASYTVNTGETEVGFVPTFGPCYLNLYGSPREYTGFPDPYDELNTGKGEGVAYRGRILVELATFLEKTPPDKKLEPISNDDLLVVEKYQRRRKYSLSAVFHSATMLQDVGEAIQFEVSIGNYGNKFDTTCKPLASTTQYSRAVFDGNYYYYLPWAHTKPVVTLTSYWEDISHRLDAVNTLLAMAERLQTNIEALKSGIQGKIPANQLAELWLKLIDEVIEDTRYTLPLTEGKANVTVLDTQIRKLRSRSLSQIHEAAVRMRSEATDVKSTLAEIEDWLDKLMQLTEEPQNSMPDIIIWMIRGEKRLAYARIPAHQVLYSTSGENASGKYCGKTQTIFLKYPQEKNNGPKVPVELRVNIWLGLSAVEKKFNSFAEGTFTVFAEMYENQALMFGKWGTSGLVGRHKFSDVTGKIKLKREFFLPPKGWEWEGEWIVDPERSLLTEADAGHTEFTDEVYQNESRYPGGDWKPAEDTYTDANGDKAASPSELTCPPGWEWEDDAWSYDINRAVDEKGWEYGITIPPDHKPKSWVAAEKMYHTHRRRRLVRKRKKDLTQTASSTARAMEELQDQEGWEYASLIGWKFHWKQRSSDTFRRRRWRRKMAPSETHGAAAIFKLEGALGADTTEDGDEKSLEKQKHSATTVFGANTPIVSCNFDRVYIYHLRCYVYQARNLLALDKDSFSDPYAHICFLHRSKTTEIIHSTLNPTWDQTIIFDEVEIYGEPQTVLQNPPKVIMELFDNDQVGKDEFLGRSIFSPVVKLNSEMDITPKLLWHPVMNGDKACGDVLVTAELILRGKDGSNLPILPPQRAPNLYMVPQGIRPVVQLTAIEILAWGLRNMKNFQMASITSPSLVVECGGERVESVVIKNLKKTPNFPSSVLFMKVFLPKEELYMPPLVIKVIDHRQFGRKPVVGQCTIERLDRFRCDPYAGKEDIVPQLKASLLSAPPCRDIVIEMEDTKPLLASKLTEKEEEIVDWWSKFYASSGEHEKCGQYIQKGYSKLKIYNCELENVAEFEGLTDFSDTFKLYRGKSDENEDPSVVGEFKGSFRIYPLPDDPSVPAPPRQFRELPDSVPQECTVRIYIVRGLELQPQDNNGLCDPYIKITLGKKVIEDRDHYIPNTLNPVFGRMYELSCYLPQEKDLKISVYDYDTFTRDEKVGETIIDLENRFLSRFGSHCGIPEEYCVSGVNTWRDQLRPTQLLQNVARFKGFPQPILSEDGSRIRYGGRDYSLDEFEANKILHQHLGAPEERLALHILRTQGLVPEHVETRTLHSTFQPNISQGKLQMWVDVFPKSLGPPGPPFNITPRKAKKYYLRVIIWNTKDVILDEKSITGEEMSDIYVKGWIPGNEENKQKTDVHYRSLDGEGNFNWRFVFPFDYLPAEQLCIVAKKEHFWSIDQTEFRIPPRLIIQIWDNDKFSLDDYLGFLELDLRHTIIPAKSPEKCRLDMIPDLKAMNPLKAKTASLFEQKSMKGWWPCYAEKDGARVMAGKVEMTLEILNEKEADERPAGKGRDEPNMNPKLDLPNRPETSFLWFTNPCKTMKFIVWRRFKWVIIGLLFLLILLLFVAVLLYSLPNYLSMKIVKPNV

T1: TRIM8-V5 (UniProt Q9BZR9)
T1 sequence: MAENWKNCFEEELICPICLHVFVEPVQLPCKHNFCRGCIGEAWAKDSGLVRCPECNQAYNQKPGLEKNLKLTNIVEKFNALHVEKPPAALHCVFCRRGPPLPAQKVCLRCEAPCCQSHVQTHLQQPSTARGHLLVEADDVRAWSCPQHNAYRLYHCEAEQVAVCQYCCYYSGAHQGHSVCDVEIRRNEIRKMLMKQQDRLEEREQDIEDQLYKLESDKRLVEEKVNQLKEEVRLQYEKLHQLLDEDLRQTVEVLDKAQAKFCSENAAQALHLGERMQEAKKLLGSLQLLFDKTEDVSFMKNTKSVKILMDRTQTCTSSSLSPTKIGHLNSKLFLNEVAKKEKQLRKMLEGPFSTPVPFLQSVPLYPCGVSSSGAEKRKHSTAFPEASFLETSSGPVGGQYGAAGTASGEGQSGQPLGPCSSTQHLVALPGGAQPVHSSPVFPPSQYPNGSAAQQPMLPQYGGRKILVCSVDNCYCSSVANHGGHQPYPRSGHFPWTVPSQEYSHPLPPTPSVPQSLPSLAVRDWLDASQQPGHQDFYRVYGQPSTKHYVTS


Experiments:
TRIM8-V5 = biological target: T1, TRIM8-V5; test: co-IP; CL1-0 cells stably expressing TRIM8-V5; immunoprecipitation with anti-V5 antibodies, western blot for endogenous MYOF
[1] = biological target: MYOF (Myoferlin) (human (endogenous in CL1-0)) (UniProt Q9NZM1); test: co-IP; CL1-0 cells stably expressing TRIM8-V5; endogenous MYOF as the bait, western blot for TRIM8-V5

Row | binding (TRIM8-V5) | binding [1] | Molecule
1 | binds |  | MYOF (Myoferlin) (from UniProt Q9NZM1 1-2061)
2 |  | binds | TRIM8-V5 (enzyme, UniProt Q9BZR9 1-551) MAENWKNCFEEELICPICLHVFVEPVQLPCKHNFCRGCIGEAWAKDSGLVRCPECNQAYNQKPGLEKNLKLTNIVEKFNALHVEKPPAALHCVFCRRGPPLPAQKVCLRCEAPCCQSHVQTHLQQPSTARGHLLVEADDVRAWSCPQHNAYRLYHCEAEQVAVCQYCCYYSGAHQGHSVCDVEIRRNEIRKMLMKQQDRLEEREQDIEDQLYKLESDKRLVEEKVNQLKEEVRLQYEKLHQLLDEDLRQTVEVLDKAQAKFCSENAAQALHLGERMQEAKKLLGSLQLLFDKTEDVSFMKNTKSVKILMDRTQTCTSSSLSPTKIGHLNSKLFLNEVAKKEKQLRKMLEGPFSTPVPFLQSVPLYPCGVSSSGAEKRKHSTAFPEASFLETSSGPVGGQYGAAGTASGEGQSGQPLGPCSSTQHLVALPGGAQPVHSSPVFPPSQYPNGSAAQQPMLPQYGGRKILVCSVDNCYCSSVANHGGHQPYPRSGHFPWTVPSQEYSHPLPPTPSVPQSLPSLAVRDWLDASQQPGHQDFYRVYGQPSTKHYVTS
